Measurements reported in PubChem BioAssay AID602196 (INSERM, 2012).

Test: 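Genes whose knock-down alters cisplatin killing of lung cancer cells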
Cell system: human A549 lung cancer cells
Reagent: siRNA pair against human genes
Timing: 48 h transfection before cisplatin; time from cisplatin to read-out not stated
Treatment: cisplatin at a dose killing half of control-siRNA cells; exact dose and duration not given
Measured: 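Cisplatin cell death as a shift from the 50% death seen with control siRNA; siRNAs toxic or growth-blocking alone scored 0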
Reading the numbers: two-siRNA summed score (-2 to +2): higher = both siRNAs protect from cisplatin killing; -2 means both sensitise; mean protection from cisplatin (shift in death): higher = protection from cisplatin killing
Hit rule: 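siRNAs harmful alone (LDH or WST-1) get 0; others get +1 for less and -1 for more cisplatin killing; genes are active when the two siRNAs give the same sign, summing to ±2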
Meaning of the calls: active = both siRNAs shift cisplatin killing the same way; inactive = no consistent shift, or siRNA harmful alone
Shown is a random part of about 23,000 reagents tested. 455 of all reagents (2%) were called active. 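Active includes both protection and sensitisation; some change values fall well beyond the stated -50 to +50 range.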 Unmarked entries are inactive. Not all columns of the deposit are shown. Not given: the amount of reagent.

Silencing of KCNF1 resulted in: two-siRNA summed score (-2 to +2) = 0; mean protection from cisplatin (shift in death) (%) = 5.6.
Depletion of LTA (lymphotoxin alpha) resulted in: two-siRNA summed score (-2 to +2) = -1; mean protection from cisplatin (shift in death) (%) = -23.2.
With knock-down of ZMYM6 (zinc finger MYM-type containing 6), the screen gave two-siRNA summed score (-2 to +2) = 0; mean protection from cisplatin (shift in death) (%) = 24.
HAL (histidine ammonia-lyase) scored two-siRNA summed score (-2 to +2) = 0; mean protection from cisplatin (shift in death) (%) = -3.
LOC390985 gave two-siRNA summed score (-2 to +2) = 1; mean protection from cisplatin (shift in death) (%) = 9.1.
SREK1 (splicing regulatory glutamic acid and lysine rich protein 1) showed two-siRNA summed score (-2 to +2) = 0; mean protection from cisplatin (shift in death) (%) = -1.9.
Knock-down of GSTT1 (glutathione S-transferase theta 1) gave: two-siRNA summed score (-2 to +2) = 0; mean protection from cisplatin (shift in death) (%) = 11.1.
After knock-down of FCGR3B (Fc gamma receptor IIIb), the screen gave two-siRNA summed score (-2 to +2) = 0; mean protection from cisplatin (shift in death) (%) = -1.4.
With knock-down of VWA5B1 (von Willebrand factor A domain containing 5B1), the record shows two-siRNA summed score (-2 to +2) = 0; mean protection from cisplatin (shift in death) (%) = 12.1.
Knock-down of LMO7 (LIM domain 7) came out at: two-siRNA summed score (-2 to +2) = 0; mean protection from cisplatin (shift in death) (%) = 10.1.
Depletion of SDCBP (syndecan binding protein) came out at: two-siRNA summed score (-2 to +2) = 0; mean protection from cisplatin (shift in death) (%) = 10.9.
LOC441490 scored two-siRNA summed score (-2 to +2) = 1; mean protection from cisplatin (shift in death) (%) = 9.8.

Just “mean protection from cisplatin (shift in death) (%)”, for 2 of the entries above:
FCGR3B (Fc gamma receptor IIIb) = -1.4
VWA5B1 (von Willebrand factor A domain containing 5B1) = 12.1

Continued:
With knock-down of ATP5MF (ATP synthase membrane subunit f), the record shows two-siRNA summed score (-2 to +2) = 0; mean protection from cisplatin (shift in death) (%) = -2.1.
With knock-down of C1QTNF8 (C1q and TNF related 8) the results were two-siRNA summed score (-2 to +2) = 1; mean protection from cisplatin (shift in death) (%) = 13.6.
With knock-down of MALT1 (MALT1 paracaspase), the record shows two-siRNA summed score (-2 to +2) = -1; mean protection from cisplatin (shift in death) (%) = -2.6.
For EOLA1 (endothelium and lymphocyte associated ASCH domain 1) the deposit lists two-siRNA summed score (-2 to +2) = 0; mean protection from cisplatin (shift in death) (%) = 7.3.
LOC164118 gave two-siRNA summed score (-2 to +2) = 0; mean protection from cisplatin (shift in death) (%) = 14.6.
For GGTLC2 (gamma-glutamyltransferase light chain 2), the entry reads two-siRNA summed score (-2 to +2) = 1; mean protection from cisplatin (shift in death) (%) = 11.7.
Against FGD3 (FYVE, RhoGEF and PH domain containing 3), the values are two-siRNA summed score (-2 to +2) = 0; mean protection from cisplatin (shift in death) (%) = 1.8.
For SNAP47 (synaptosome associated protein 47), the values are two-siRNA summed score (-2 to +2) = 0; mean protection from cisplatin (shift in death) (%) = -4.9.
With knock-down of OR2C1 (olfactory receptor family 2 subfamily C member 1), the record shows two-siRNA summed score (-2 to +2) = 0; mean protection from cisplatin (shift in death) (%) = 3.4.
For MX1 (MX dynamin like GTPase 1) the deposit lists two-siRNA summed score (-2 to +2) = -2 (active); mean protection from cisplatin (shift in death) (%) = -16.
After knock-down of LOC400969, the screen gave two-siRNA summed score (-2 to +2) = 0; mean protection from cisplatin (shift in death) (%) = 10.7.
PLEKHG3 (pleckstrin homology and RhoGEF domain containing G3) showed two-siRNA summed score (-2 to +2) = 0; mean protection from cisplatin (shift in death) (%) = 14.1.
After knock-down of LOC389398, the record shows two-siRNA summed score (-2 to +2) = 1; mean protection from cisplatin (shift in death) (%) = 18.8.
With knock-down of C17orf78 (chromosome 17 open reading frame 78) the results were two-siRNA summed score (-2 to +2) = 0; mean protection from cisplatin (shift in death) (%) = 6.1.
LOC442481 scored two-siRNA summed score (-2 to +2) = 0; mean protection from cisplatin (shift in death) (%) = 2.8.
Depletion of ITGAM (integrin subunit alpha M) gave: two-siRNA summed score (-2 to +2) = 0; mean protection from cisplatin (shift in death) (%) = 3.1.
Silencing of LMF1 (lipase maturation factor 1) resulted in: two-siRNA summed score (-2 to +2) = 0; mean protection from cisplatin (shift in death) (%) = 5.1.
Depletion of MAP1LC3A (microtubule associated protein 1 light chain 3 alpha) gave: two-siRNA summed score (-2 to +2) = 1; mean protection from cisplatin (shift in death) (%) = 2.9.
Silencing of MN1 (MN1 proto-oncogene, transcriptional regulator) gave: two-siRNA summed score (-2 to +2) = 0; mean protection from cisplatin (shift in death) (%) = -1.7.
